Measured values taken from paper PMC9841675.
These are yes or no findings as the source states them, for the method shown. Binding seen in cells or lysates may run through a third protein. Some entries that bind do so weakly or less than the wild type.

By UniProt entry, the sequences of proteins in these tests, tags left out. Where a name states a change or a piece, a line headed by the entry shows the natural chain unless it says otherwise.
UniProt Q13547: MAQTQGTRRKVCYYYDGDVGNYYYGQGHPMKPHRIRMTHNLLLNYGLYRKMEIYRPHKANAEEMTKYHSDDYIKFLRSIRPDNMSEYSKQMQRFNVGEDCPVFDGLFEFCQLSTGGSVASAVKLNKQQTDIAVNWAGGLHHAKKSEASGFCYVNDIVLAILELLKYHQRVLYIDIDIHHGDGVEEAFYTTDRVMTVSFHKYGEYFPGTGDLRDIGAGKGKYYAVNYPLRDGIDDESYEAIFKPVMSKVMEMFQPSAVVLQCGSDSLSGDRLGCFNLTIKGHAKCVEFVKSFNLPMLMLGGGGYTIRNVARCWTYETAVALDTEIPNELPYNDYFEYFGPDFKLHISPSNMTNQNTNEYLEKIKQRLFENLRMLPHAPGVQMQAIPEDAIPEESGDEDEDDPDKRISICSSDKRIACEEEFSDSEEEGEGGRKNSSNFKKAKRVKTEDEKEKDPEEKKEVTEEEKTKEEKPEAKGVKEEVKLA
UniProt Q9GZN2: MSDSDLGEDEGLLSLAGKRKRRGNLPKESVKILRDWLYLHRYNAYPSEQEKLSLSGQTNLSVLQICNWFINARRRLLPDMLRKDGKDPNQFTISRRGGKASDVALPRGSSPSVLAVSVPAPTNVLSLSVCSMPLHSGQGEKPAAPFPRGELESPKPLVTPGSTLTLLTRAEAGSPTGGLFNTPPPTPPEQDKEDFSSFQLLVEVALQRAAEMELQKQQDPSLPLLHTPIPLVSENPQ

Target: HDAC1, endogenous (human (endogenous in H1299)) (UniProt Q13547)
Test: co-IP; lysates of wild type (control) and Flag-TGIF2^AA-overexpressing H1299 cells incubated with protein A/G agarose beads and antibody overnight at 4 °C, washed with PBS; IP with anti-HDAC1 and anti-TGIF2 (control cells) or anti-HDAC1 and anti-Flag (TGIF2^AA cells); western blot

binding | Substance
no binding | Flag-TGIF2^AA (phosphorylation-deficient TGIF2 mutant, T182A and T186A) (from UniProt Q9GZN2 1-237)
binds | phosphorylated TGF-β-induced factor homeobox 2 (p-TGIF2), endogenous (from UniProt Q9GZN2 1-237)
